Here are results for 19 compounds from US20170204123A1, “Gold (I)-Phosphine Compounds as Anti-Bacterial Agents” (Auspherix Limited, priority 2014, published 2017).

Structures are written as SMILES.

The first data set concerns chinese hamster ovary cells (CHO). Briefly: CHO toxicity assay (CCK-8 cell viability). The class given is cell-based. The conditions noted are these: dose giving 50% growth inhibition of CHO cells divided by dose where 50% of S. aureus growth is inhibited. As to the method: Cell counting kit-8 (Sigma, CCK-8) assays were performed to assess the effect of compounds on cell viability. The assay is based on the reduction of a water-soluble tetrazolium salt (WST-8) by cellular dehydrogenases to a formazan dye which can be detected spectroscopically. 96-well plates were seeded with chinese hamster ovary cells (CHO) cells at 7×10^3 cells per well in Dulbecco's modified Eagle's medium nutrient mixture F-12 Ham (containing 15 mM HEPES, NaHCO3, pyridoxine and L-glutamine) supplemented with 10% fetal bovine serum (FBS). The following day serial dilutions of compounds (dissolved and diluted in DMSO) were added to the cells in duplicates. Control included an ‘untreated’ control where cells were grown in the presence of 1% DMSO and a medium only control (plus 1% DMSO). After 24 hours CCK-8 reagent (10 μl) was added to each well and cell viability was assessed by measuring the absorbance at a wavelength of 450 nm after 2.5-3 hours. Only living cells can reduce the tetrazolium salts into coloured formazan products. Results were expressed as 50% growth inhibition (TD50) values compared to ‘untreated’ control.
The therapeutic index was calculated as the ratio of the dose that produces growth inhibition in 50% of CHO cells divided by the dose where 50% of S. aureus growth is inhibited.
Turning to `CC[P](CC)(CC)=[Au][S]C1CCOCC1` [Compound 1], the “Therapeutic Index” value amounted to 1.7.

For `CC[P](CC)(CC)=[Au][S]C1CCN(C(=O)OC(C)(C)C)CC1` [Compound 2], the “Therapeutic Index” value came to 2.3.

In the case of `CC[P](CC)(CC)=[Au][S]c1ncccn1` [Compound 3], the “Therapeutic Index” value is listed as 3.

Consider `CC[P](CC)(CC)=[Au][S]c1cccnn1` [Compound 4], for which the “Therapeutic Index” value was 3.7.

For the compound `CC[P](CC)(CC)=[Au][S]c1nc2ccccc2[nH]1` [Compound 5], the “Therapeutic Index” value was 3.5.

On to `CC[P](CC)(CC)=[Au][S][C@H]1CC[C@H](O)CC1` [Compound 6], for which the “Therapeutic Index” value worked out at 4.5.

Turning to `CC[P](CC)(CC)=[Au][S]C[C@H](NC(C)=O)C(=O)OC` [Compound 7], the “Therapeutic Index” value is recorded as 8.7.

As to `CC[P](CC)(CC)=[Au][S]c1nc2ncccc2o1` [Compound 8], the “Therapeutic Index” value was 4.

Turning to `C[P](=[Au][S]c1nc2ccccc2[nH]1)(c1ccccc1)c1ccccc1` [Compound 9], the “Therapeutic Index” value amounted to 1.6.

Regarding `COC(=O)[C@H](C[S][Au]=[P](C)(c1ccccc1)c1ccccc1)NC(C)=O` [Compound 10], the “Therapeutic Index” value came to 1.1.

Take `C[P](=[Au][S]c1nc2ncccc2o1)(c1ccccc1)c1ccccc1` [Compound 11]: the “Therapeutic Index” value came out at 1.3.

With `CC[P](CC)(CC)=[Au][Se]C[C@H](NC(C)=O)C(=O)OC` [Compound 12], the “Therapeutic Index” value is given as 5.3.

For a further data set, the system named is human hepatocyte cell line (HepG2). Briefly: HepG2 cell inhibition assay (CCK-8 cell viability). The class given is cell-based. The conditions noted are these: dose giving 50% growth inhibition of HepG2 cells divided by dose where 50% of S. aureus growth is inhibited. Here is the method: HepG2 Cell Inhibition Assay
Cell counting kit-8 (Sigma, CCK-8) assays were performed to assess the effect of compounds on cell viability. The assay is based on the reduction of a water-soluble tetrazolium salt (WST-8) by cellular dehydrogenases to a formazan dye which can be detected spectroscopically. 96-well plates were seeded with the human hepatocyte cell line (HepG2) at approximately 8×10^3 cells per well in Minimum Essential Medium Eagle (EMEM) with Earle's salts and sodium bicarbonate supplemented with 10% heat-inactivated foetal bovine serum 2 mM glutamine and 1% non-essential amino acids (NEAA). The following day serial dilutions of compounds (dissolved and diluted in DMSO) were added to the cells in duplicates. Control included an ‘untreated’ control where cells were grown in the presence of 1% DMSO and a medium only control (plus 1% DMSO). After 24 hours CCK-8 reagent (10 μl) was added to each well and cell viability was assessed by measuring the absorbance at a wavelength of 450 nm after 2-3 h hours. Only living cells can reduce the tetrazolium salts into coloured formazan products. Results were expressed as 50% growth inhibition (TD50) values compared to ‘untreated’ control. The therapeutic index was calculated as the ratio of the dose that produces growth inhibition in 50% of HepG2 cells divided by the dose where 50% of S. aureus growth is inhibited.
As to `C[P](C)(=[Au][S]c1nc2ccccc2[nH]1)c1ccccc1` [Compound 13], the “Therapeutic Index (HepG2)” value was found to be 6.

On to `C[P](C)(=[Au][S]c1nc2ncccc2o1)c1ccccc1` [Compound 14], for which the “Therapeutic Index (HepG2)” value was found to be 6.

With `COC(=O)[C@H](C[S][Au]=[P](C)(C)c1ccccc1)NC(C)=O` [Compound 15], the “Therapeutic Index (HepG2)” value is on record as 4.

`CC[P](CC)(CC)=[Au][S]C[C@H](NC(C)=O)C(N)=O` [Compound 16]: the “Therapeutic Index (HepG2)” value is on record as over 11.

Turning to `CC(C)[P](=[Au][S]c1nc2ccccc2[nH]1)(C(C)C)C(C)C` [Compound 20], the “Therapeutic Index (HepG2)” value was over 8.

Turning to `COC(=O)[C@H](C[Se][Au]=[P](C)(c1ccccc1)c1ccccc1)NC(C)=O` [Compound 22], the “Therapeutic Index (HepG2)” value came out at 4.

For `COC(=O)[C@H](C[Se][Au]=[P](C(C)C)(C(C)C)C(C)C)NC(C)=O` [Compound 23], the “Therapeutic Index (HepG2)” value was determined as 13.
